Laboratory results published in publication PMC5561029.
Results are given in words; binding and its absence hold for the method and conditions named. Some entries that bind do so weakly or less than the wild type.

Sequences of proteins named here, by UniProt entry; tags and fusion partners are left off.
UniProt P42224: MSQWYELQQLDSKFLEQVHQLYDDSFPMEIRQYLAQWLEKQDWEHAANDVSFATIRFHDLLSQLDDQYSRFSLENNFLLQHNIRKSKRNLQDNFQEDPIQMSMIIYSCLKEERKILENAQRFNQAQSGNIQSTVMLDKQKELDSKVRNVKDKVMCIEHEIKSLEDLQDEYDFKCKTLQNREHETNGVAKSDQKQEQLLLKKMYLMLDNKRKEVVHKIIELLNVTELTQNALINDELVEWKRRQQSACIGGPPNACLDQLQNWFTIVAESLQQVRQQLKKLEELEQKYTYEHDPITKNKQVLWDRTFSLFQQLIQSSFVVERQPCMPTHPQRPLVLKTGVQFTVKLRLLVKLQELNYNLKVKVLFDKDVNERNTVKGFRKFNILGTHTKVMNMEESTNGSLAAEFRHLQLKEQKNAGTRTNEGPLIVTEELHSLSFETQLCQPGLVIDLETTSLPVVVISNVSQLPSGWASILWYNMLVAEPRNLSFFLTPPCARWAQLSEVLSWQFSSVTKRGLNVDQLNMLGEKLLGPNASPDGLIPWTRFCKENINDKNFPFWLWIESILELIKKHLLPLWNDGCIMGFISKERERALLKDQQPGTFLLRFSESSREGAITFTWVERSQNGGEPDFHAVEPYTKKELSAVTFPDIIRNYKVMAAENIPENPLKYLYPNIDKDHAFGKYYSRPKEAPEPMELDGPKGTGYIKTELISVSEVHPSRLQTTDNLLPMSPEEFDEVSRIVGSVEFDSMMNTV
UniProt P05412: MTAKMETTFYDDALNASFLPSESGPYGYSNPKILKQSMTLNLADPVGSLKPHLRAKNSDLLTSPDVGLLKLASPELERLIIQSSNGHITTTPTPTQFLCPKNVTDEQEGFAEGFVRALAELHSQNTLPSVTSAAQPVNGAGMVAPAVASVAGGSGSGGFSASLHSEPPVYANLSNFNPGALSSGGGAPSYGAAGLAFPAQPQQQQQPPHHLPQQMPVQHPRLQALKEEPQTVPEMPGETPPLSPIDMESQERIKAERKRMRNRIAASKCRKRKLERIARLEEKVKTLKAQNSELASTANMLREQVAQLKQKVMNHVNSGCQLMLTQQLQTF

Target: signal transducer and activator of transcription 1 (STAT-1) (human (endogenous in HepG2 or SW480)) (UniProt P42224)
Experiment: native gel or EMSA; nuclear extracts (5 ug) incubated 20 min at RT with 32P-labelled MMP-1 or MMP-3 promoter oligonucleotides in 20 mM HEPES pH 7.8, 1 mM MgCl2, 0.5 mM DTT, 40-80 mM KCl, 5% glycerol; antibodies to STAT-1, STAT-3, STAT-5, c-Jun or pan-Fos added for supershift or blocking; the complex is seen on DNA

binding: binds
Substance: c-Jun (from UniProt P05412 1-331)
